Some peptides are written in HELM: one residue between dots, names in brackets for other building blocks, links after the first $.
Experiment: peptide synthesis
Settings: whole synthesis, 214 nm, peak area, TFA salt

PEPTIDE1{E.L.V.D.N.A.V.G.G.D.L.S.K.Q.M.E.E.E.A.V.R.L.F.I.E.W.L.K.N.G.G.P.S.S.G.A.P.P.P.S.[am]}$$$$V2.0
final HPLC purity: 97.7%

— article PMC4686834 (Nature Communications, 2015)
